These are yes or no findings as the source states them, for the method shown. Binding seen in cells or lysates may run through a third protein. Some results given as binding are weak or reduced against the parent protein; the word gives no strength.
Biological target: T1, VE-cadherin (mouse (endogenous in MyEnd)) (UniProt P55284)
T1 sequence: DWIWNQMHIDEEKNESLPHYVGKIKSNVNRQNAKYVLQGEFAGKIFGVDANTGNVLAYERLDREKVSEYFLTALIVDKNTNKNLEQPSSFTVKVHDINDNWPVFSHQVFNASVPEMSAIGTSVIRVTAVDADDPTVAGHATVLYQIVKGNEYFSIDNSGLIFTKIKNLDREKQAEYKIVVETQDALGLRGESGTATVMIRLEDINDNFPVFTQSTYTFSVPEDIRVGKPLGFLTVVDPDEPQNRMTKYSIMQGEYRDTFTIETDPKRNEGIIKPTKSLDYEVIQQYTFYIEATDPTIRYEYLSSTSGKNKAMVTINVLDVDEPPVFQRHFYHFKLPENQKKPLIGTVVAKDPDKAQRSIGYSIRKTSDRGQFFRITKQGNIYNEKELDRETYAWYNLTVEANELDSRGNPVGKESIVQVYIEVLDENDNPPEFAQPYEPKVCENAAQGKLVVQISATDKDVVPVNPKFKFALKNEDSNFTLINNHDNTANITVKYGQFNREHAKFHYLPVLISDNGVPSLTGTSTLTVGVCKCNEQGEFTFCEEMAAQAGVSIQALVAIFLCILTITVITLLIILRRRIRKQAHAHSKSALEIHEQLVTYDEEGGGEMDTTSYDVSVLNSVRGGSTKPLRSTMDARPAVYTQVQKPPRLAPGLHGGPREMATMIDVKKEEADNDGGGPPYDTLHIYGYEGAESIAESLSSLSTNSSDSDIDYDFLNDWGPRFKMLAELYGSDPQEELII
Assay: co-IP; MyEnd lysate (0.5% Nonidet-40, 10 mM HEPES pH 7.9, 1.5 mM MgCl2, 10 mM KCl, 5 mM EDTA); IP with goat anti-VE-cadherin antibody and Protein G Plus-Agarose, 4°C; Western blot; control IP with beads, no antibody

By UniProt entry, the sequences of proteins in these tests, tags left out.
UniProt Q02248: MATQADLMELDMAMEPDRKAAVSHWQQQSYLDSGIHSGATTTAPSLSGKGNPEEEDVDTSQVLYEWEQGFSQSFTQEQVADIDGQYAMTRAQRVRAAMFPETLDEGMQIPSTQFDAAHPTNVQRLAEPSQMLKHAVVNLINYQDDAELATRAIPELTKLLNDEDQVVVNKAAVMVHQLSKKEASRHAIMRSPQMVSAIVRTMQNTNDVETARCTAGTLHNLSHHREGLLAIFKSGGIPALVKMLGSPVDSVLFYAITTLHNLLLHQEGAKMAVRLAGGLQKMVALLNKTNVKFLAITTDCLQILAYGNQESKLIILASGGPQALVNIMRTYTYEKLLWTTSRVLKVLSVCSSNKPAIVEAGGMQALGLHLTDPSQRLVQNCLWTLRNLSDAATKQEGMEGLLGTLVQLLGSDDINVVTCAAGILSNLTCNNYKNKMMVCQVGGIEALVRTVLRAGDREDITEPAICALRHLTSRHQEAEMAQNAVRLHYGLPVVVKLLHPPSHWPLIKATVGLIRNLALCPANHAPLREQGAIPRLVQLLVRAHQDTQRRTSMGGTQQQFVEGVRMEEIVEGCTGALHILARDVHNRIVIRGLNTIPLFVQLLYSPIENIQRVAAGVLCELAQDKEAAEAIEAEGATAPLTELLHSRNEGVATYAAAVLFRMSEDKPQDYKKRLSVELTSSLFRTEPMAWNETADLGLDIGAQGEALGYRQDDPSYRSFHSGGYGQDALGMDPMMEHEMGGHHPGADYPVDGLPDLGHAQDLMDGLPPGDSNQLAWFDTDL
UniProt E9Q777: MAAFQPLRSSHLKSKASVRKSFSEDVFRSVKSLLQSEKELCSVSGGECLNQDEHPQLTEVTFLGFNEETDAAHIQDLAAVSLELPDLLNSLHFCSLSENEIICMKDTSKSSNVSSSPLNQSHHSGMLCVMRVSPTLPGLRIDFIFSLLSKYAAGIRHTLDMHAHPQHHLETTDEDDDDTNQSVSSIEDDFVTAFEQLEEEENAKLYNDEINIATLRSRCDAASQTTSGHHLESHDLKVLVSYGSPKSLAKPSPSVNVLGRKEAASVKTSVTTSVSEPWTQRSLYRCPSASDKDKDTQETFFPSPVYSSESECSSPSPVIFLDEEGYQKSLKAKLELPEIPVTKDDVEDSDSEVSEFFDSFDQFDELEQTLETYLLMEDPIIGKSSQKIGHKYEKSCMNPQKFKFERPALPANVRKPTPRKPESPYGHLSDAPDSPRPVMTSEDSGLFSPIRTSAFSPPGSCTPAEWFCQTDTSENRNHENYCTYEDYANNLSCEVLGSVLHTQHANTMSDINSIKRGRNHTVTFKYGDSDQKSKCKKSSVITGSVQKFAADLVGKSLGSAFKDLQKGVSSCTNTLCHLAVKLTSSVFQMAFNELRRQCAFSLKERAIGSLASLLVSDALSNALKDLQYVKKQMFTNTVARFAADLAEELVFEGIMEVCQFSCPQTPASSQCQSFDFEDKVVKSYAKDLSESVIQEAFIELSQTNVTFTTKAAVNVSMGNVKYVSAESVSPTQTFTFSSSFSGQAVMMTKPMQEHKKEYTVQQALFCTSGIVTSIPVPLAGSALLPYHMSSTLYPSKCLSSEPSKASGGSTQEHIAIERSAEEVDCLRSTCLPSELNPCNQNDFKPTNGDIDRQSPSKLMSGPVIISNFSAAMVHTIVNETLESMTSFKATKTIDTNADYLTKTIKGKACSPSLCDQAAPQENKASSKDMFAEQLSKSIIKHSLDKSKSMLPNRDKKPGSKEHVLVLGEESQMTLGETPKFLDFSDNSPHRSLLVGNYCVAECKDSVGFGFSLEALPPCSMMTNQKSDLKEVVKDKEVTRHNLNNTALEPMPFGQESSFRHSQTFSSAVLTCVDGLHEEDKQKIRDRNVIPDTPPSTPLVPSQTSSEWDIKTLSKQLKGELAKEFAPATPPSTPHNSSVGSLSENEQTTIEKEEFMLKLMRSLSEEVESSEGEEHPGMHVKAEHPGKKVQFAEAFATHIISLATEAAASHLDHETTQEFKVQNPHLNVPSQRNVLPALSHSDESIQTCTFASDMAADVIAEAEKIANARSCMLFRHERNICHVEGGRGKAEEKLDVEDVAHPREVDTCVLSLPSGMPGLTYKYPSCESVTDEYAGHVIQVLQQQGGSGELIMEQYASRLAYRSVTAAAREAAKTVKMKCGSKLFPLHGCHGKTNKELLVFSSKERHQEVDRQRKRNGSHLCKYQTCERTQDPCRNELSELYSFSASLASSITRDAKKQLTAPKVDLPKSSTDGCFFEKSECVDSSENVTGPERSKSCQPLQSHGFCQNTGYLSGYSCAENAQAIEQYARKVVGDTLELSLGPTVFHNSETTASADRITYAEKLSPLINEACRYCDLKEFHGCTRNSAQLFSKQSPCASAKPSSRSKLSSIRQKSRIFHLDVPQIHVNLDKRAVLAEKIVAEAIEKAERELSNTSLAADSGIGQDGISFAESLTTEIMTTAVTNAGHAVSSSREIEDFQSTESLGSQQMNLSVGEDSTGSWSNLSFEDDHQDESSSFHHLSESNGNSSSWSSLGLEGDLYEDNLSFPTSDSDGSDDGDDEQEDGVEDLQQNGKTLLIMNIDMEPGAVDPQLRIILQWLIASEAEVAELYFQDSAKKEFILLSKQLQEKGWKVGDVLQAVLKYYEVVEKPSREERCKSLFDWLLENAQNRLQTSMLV

binding | Substance
binds | ß-catenin (from UniProt Q02248 1-781)
binds | AKAP220 (from UniProt E9Q777 1-1894)

From PMC4154725
